These are yes or no findings as the source states them, for the method shown.

Amino acid sequences for entries named in this document (tags omitted). A change or cut given only in a name is not applied to a line headed by its entry.
UniProt P54764: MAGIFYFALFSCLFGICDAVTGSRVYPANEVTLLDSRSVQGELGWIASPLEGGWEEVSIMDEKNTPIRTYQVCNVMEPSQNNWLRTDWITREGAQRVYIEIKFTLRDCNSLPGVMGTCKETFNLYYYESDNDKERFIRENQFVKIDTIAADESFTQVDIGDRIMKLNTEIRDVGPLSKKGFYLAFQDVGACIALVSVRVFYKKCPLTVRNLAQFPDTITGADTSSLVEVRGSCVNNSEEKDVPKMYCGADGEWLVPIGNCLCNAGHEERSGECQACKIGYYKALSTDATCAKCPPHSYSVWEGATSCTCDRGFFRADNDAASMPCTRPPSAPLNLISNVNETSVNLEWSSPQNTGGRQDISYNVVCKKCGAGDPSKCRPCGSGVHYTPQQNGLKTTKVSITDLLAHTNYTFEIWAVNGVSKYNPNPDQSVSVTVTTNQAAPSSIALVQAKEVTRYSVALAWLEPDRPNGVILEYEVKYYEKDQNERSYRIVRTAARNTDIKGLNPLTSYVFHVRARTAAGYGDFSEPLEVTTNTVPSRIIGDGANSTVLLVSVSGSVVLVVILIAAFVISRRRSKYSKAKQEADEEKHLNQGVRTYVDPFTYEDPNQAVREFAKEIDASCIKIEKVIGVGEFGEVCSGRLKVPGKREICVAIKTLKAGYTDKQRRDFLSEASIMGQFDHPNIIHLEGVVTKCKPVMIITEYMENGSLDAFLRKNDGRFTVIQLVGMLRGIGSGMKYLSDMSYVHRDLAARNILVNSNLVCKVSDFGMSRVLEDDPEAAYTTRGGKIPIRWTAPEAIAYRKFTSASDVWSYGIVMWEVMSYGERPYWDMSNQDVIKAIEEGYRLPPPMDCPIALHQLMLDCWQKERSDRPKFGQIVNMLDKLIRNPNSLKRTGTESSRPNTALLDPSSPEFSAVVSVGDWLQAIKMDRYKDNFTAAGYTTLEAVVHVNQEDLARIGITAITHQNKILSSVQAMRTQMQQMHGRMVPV

The source of these data is PMC3206076, “Structural, Stability, Dynamic and Binding Properties of the ALS-Causing T46I Mutant of the hVAPB MSP Domain as Revealed by NMR and MD Simulations” (PLoS ONE, 2011).

This experiment addresses EphA4 ligand-binding domain (181 residues) (UniProt P54764). Description: NMR titration; 1H-15N HSQC of 15N-labeled EphA4 ligand-binding domain (100 µM) without or with unlabeled WT- or T46I-MSP (ratios 1:0.5 to 1:8) or Nir2 peptide (up to 1:10); 25°C; both purified.

B1: Nir2 peptide (EEEFFDAHE) (peptide)
peptide: EEEFFDAHE
notes: FFAT-motif peptide of the Nir2 protein; also called the peptide; source: synthetic peptide, bought: Genesis Biotech Inc., further purified by HPLC (reverse-phase C18)
With B1, the binding entry is “no binding (tested: ratio of 1∶10 (EphA4/Nir2))”.
